{"source": "PubChem BioAssay AID686937 (Drosophila RNAi Screening Center, 2013)", "test": "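Genes whose loss weakens secretory pathway function in fly cells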 (primary screen)", "system": "Drosophila S2 cells expressing secreted horseradish peroxidase", "knock-down reagent": "long dsRNA against Drosophila genes", "time to read-out": "about 5.5 days (5 days dsRNA, then 12 h reporter induction)", "challenge": "reporter expression induced after 5 days of dsRNA, read 12 h later; inducer not stated", "detection": "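After 5 days of dsRNA and 12 h of reporter induction, medium peroxidase read by chemiluminescence and scored as per-plate z-score; higher values mean more reporter released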", "direction": "z-score: higher = more reporter secreted into medium", "note": "The screen tested about 23,000 reagents; below is a random part of those with a known target gene and a result. 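Reduced-secretion tags in replicate 1 do not always agree with the z-scores; no criterion for assigning the tags was given.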 Names joined by + are all predicted targets of the reagent. Not all columns of the deposit are shown. The record does not give: the amount of reagent."}
The first 3 records as a preview:
{"gene": "fru", "amplicon": "DRSC16951", "z-score, replicate 1": -2.59, "phenotype, replicate 1": "reduced secretion"}
{"gene": "fru", "amplicon": "DRSC16952", "z-score, replicate 1": 0.31, "phenotype, replicate 1": "reduced secretion"}
{"gene": "fru", "amplicon": "DRSC16953", "z-score, replicate 1": 0.37}

Results, repeating the preview:
{"gene": "fru", "amplicon": "DRSC16951", "z-score, replicate 1": -2.59, "phenotype, replicate 1": "reduced secretion"}
{"gene": "fru", "amplicon": "DRSC16952", "z-score, replicate 1": 0.31, "phenotype, replicate 1": "reduced secretion"}
{"gene": "fru", "amplicon": "DRSC16953", "z-score, replicate 1": 0.37}
{"gene": "fru", "amplicon": "DRSC21600", "z-score, replicate 1": 0.31}
{"gene": "CG13713", "amplicon": "DRSC08322", "z-score, replicate 1": 0.49}
{"gene": "Ance-5", "amplicon": "DRSC04055", "z-score, replicate 1": 0.22}
{"gene": "CG32579", "amplicon": "DRSC19872", "z-score, replicate 1": 0.54}
{"gene": "CG3702", "amplicon": "DRSC00628", "z-score, replicate 1": 0.33}
{"gene": "CG2104", "amplicon": "DRSC12304", "z-score, replicate 1": 0.13}
{"gene": "SMC3", "amplicon": "DRSC20227", "z-score, replicate 1": 0.21}
{"gene": "CG18231", "amplicon": "DRSC10307", "z-score, replicate 1": 0.12}
{"gene": "GILT3", "amplicon": "DRSC14672", "z-score, replicate 1": -0.58}
{"gene": "Kots", "amplicon": "DRSC16581", "z-score, replicate 1": 0.24}
{"gene": "CG13026", "amplicon": "DRSC09906", "z-score, replicate 1": 0.3}
{"gene": "Stt3B", "amplicon": "DRSC16781", "z-score, replicate 1": -0.17}
{"gene": "xmas", "amplicon": "DRSC21306", "z-score, replicate 1": -2.28, "phenotype, replicate 1": "reduced secretion"}
{"gene": "xmas", "amplicon": "DRSC22178", "z-score, replicate 1": -0.41}
{"gene": "HP5", "amplicon": "DRSC19773", "z-score, replicate 1": 0.4}
{"gene": "CG7168", "amplicon": "DRSC16208", "z-score, replicate 1": 0.26}
{"gene": "CG1674", "amplicon": "DRSC17107", "z-score, replicate 1": 0.66}
{"gene": "CG1674", "amplicon": "DRSC17142", "z-score, replicate 1": 0.37}
{"gene": "SCAR", "amplicon": "DRSC03426", "z-score, replicate 1": -0.48}
{"gene": "NiPp1", "amplicon": "DRSC07307", "z-score, replicate 1": 0.12}
{"gene": "wuho", "amplicon": "DRSC18101", "z-score, replicate 1": 0.25}
{"gene": "CG15580", "amplicon": "DRSC12266", "z-score, replicate 1": 0.25}
{"gene": "CG11350", "amplicon": "DRSC08181", "z-score, replicate 1": -1.74, "phenotype, replicate 1": "reduced secretion"}
{"gene": "Pi3K21B", "amplicon": "DRSC00771", "z-score, replicate 1": 0.49}
{"gene": "CG2765", "amplicon": "DRSC04315", "z-score, replicate 1": -0.29}
{"gene": "Eglp1", "amplicon": "DRSC04502", "z-score, replicate 1": -0.29}
{"gene": "Prdm13", "amplicon": "DRSC09970", "z-score, replicate 1": 0.4}
{"gene": "phr", "amplicon": "DRSC07662", "z-score, replicate 1": 0.54}
{"gene": "CG31301", "amplicon": "DRSC22164", "z-score, replicate 1": -0.54}
{"gene": "ttv", "amplicon": "DRSC07709", "z-score, replicate 1": 0.39}
{"gene": "CG10588", "amplicon": "DRSC11628", "z-score, replicate 1": 0.19}
{"gene": "Mic26-27", "amplicon": "DRSC15913", "z-score, replicate 1": 0.27}
{"gene": "car", "amplicon": "DRSC20316", "z-score, replicate 1": 0.05}
{"gene": "RabX6", "amplicon": "DRSC08223", "z-score, replicate 1": 0.31}
{"gene": "Nhe1", "amplicon": "DRSC00762", "z-score, replicate 1": 0.4}
{"gene": "RpS29 + snoRNA:Psi18S-1275", "amplicon": "DRSC16433", "z-score, replicate 1": -3.05, "phenotype, replicate 1": "reduced secretion"}
{"gene": "CG6984", "amplicon": "DRSC07013", "z-score, replicate 1": 0.28}
